Test results reported in US12458643B2, “Antidepressant/anxiolytic drug in which PAC1 receptor antagonist is used” (KAGOSHIMA UNIVERSITY, priority 2020, dated 2025).
At least one compound was matched to its structure with a doubt left.

Legend:
Type in all cases: in vivo, mouse
[1] = tested on: plasma corticosterone level; assay: Chronic social defeat stress, plasma corticosterone level (ELISA); settings: 30 mg/kg i.p. single dose Day 12, blood Day 13
[2] = tested on: chronic social defeat stress mice; assay: Chronic social defeat stress, sucrose preference test
Protocol: In a sucrose preference test, mice are exposed to a sucrose solution and regular water contained in bottles at the same time. Normal mice prefer to drink the sweet sucrose solution, whereas depressed mice drink the sucrose solution at a decreased ratio.
(§1) Chronic social defeat stress was applied at 10 min/day for 10 days (Days 1 to 10) to male C57BL/6N mice (8 to 12 weeks old) each reared in isolation for 10 days or longer. On Day 11, SPAT was conducted, and susceptible mice were selected. A vehicle (10% DMSO solution; dissolved in saline; n=11) or PA-8 (30 mg/kg; n=9) was intraperitoneally administered once daily (0.1 mL/10 g) for 7 consecutive days from day 12. The sucrose preference test was conducted (a sucrose preference ratio was studied for 17 hours) 30 minutes after the final administration on the 7th day (Day 18). Mice reared for 10 days in a home cage without chronic social defeat stress load were used as a control (n=10). The data was indicated by mean±standard error. *P<0.05 (One-way ANOVA followed by Tukey-Kramer test).
as §1, with “PA-9” for “PA-8”, “n=9 or 8)” for “n=9)”, “after administration on” for “after”, “first day (Day 12) and” for “final administration”, “18). […]” for “18).”
Chronic social defeat stress was applied at 10 min/day for 10 days (Days 1 to 10) to male C57BL/6N mice (8 to 12 weeks old) each reared in isolation for 10 days or longer. On Day 11, SPAT was conducted, and susceptible mice were selected. On the next day (Day 12), a vehicle (10% DMSO solution; dissolved in saline; n=11) or PA-915 (30 mg/kg; n=10) was intraperitoneally administered (0.1 mL/10 g) to the mice. The sucrose preference test was conducted (a sucrose preference ratio was studied for 17 hours) from 30 minutes after administration. Mice reared for 10 days in a home cage without chronic social defeat stress load were used as a control (n=15). The data was indicated by mean±standard error. *P<0.05 (One-way ANOVA followed by Tukey-Kramer test).
Chronic social defeat stress was applied at 10 min/day for 10 days (Days 1 to 10) to male C57BL/6N mice (8 to 12 weeks old) each reared in isolation for 10 days or longer. […]

normal mice = assay: Light-dark test in normal mice; settings: normal male C57BL/6J mice, 30 mg/kg i.p., 60 min after administration, 10 min test
Protocol: The effects of PA-8 and PA-81004 on normal mice were evaluated by a light-dark test (test to measure spontaneous locomotion by exploiting the properties of mice to avoid light environments, and placing the mice in a light box and a dark box joined together (each 20 cm×20 cm, height: 30 cm); in this test, anxiety-like behavior is evaluated by measuring times spent in the light box and the dark box and the number of transitions between the light box and the dark box).
Male C57BL/6J mice (8 to 12 weeks old) were acclimatized to a laboratory for 60 minutes. Then, a vehicle (10% DMSO solution; dissolved in saline; n=13), PA-8 (30 mg/kg; n=12) or PA-81004 (30 mg/kg; n=12) was intraperitoneally administered thereto (0.1 mL/10 g). After a lapse of 60 minutes after administration, the test was conducted for 10 minutes. The results are shown in FIG. 2 (A: time spent in the light box, B: the number of transitions between the light and dark boxes; light box illuminance: 330 lx).
The effects of PA-9 and PA-915 on normal mice were evaluated by the light-dark test.
Male C57BL/6J mice (8 to 12 weeks old) were acclimatized to a laboratory (illuminance: 330 lx) for 60 minutes. Then, a vehicle (10% DMSO solution; dissolved in saline; n=12), PA-9 (30 mg/kg; n=10) or PA-915 (30 mg/kg; n=10) was intraperitoneally administered thereto (0.1 mL/10 g). […]

[3] = tested on: chronic social defeat stress mice; assay: Chronic social defeat stress, elevated plus maze test
[4] = tested on: chronic social defeat stress mice; assay: Chronic social defeat stress, open field test; settings: 30 mg/kg i.p. single dose, 24 hours after (Day 13)

## O=C(NCCc1c[nH]cn1)C1CC(=O)N(c2n[nH]c3c(Cl)cccc23)C1 (stereo not drawn) [PA-915, N-[2-(1H-imidazol-4-yl)ethyl]-1-(7-chloro-1H-indazol-3-yl)-5-oxo-3-pyrrolidinecarboxamide]
[1]
  effect on abnormal corticosterone secretion in plasma (ELISA): improving effect
[2]; Example 19, 8, 15, 29, 57 days after single i.p. dose (PA-915 30 mg/kg, ketamine 20 mg/kg), fluoxetine: after withdrawal of 14-day administration
  sustained effect on reduced sucrose preference: maintained its effectiveness 8, 15, 29, and 57 days later
[2]; Example 19, single i.p. dose (PA-915 30 mg/kg, ketamine 20 mg/kg, fluoxetine 20 mg/kg), 24 hours later (Day 13)
  effect on reduced sucrose preference: improved reduced sucrose preference in a fast-acting manner
[2]; chronic social defeat stress, 30 mg/kg i.p. single dose (Day 12), test from 30 min after administration, 17 hours
  effect on reduced sucrose preference: improving effect
[2]; chronic social defeat stress, 30 mg/kg oral Day 12, test Day 15
  effect on reduced sucrose preference: significant improving effect
Normal mice
  pharmacological action in light-dark test (time in light box, transitions): no pharmacological action
[3]; 30 mg/kg i.p. single dose, 48 hours after (Day 14)
  effect on anxiety-like behavior (elevated plus maze test): sustained anti-anxiety effect
[3]; 30 mg/kg oral Day 12, test Day 14
  effect on anxiety-like behavior (elevated plus maze test): significant anti-anxiety effect
[4]
  effect on anxiety-like behavior (open field test): significant anti-anxiety effect
